PMC6523561
These are yes or no findings as the source states them, for the method shown. In cells and extracts the contact can be indirect. Binding can be weak; no strength is given. For some assays here: Tags and fused reporters may be left off the sequences shown.

How the values were obtained:
[1] = biological target: T1, Flag-tagged DUB3 (human) (UniProt Q6R6M4); test: co-IP; A549 cells transfected with Flag-DUB3 plasmid or control plasmid; total cell lysates immunoprecipitated with anti-Flag antibodies; probed with anti-Flag or anti-cyclin A antibodies
T1 sequence: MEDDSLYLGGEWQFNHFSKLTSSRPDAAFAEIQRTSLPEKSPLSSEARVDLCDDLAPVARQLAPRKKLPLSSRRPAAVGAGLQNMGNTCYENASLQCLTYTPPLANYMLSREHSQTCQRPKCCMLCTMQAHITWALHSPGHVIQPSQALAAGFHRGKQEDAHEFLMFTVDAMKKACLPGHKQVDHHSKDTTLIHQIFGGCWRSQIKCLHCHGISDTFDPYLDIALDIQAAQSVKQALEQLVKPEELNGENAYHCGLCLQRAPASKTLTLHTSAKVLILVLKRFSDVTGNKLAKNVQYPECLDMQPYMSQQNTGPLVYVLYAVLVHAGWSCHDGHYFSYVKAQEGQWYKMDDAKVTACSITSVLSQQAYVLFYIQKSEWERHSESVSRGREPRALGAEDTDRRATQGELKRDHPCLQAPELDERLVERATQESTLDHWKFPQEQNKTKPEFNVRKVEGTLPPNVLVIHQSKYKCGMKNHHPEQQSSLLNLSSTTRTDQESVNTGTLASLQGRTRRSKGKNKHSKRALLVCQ

[2] = biological target: cyclin A (human (endogenous in A549)); test: co-IP; untransfected A549 cell lysates immunoprecipitated with control IgG or anti-cyclin A antibodies; probed with anti-DUB3 or anti-cyclin A antibodies (endogenous proteins)

In the case of cyclin A (human (endogenous in A549)), the binding [1] is reported as “binds”.

B1: DUB3 (enzyme, UniProt Q6R6M4 1-530)
chain: MEDDSLYLGGEWQFNHFSKLTSSRPDAAFAEIQRTSLPEKSPLSSEARVDLCDDLAPVARQLAPRKKLPLSSRRPAAVGAGLQNMGNTCYENASLQCLTYTPPLANYMLSREHSQTCQRPKCCMLCTMQAHITWALHSPGHVIQPSQALAAGFHRGKQEDAHEFLMFTVDAMKKACLPGHKQVDHHSKDTTLIHQIFGGCWRSQIKCLHCHGISDTFDPYLDIALDIQAAQSVKQALEQLVKPEELNGENAYHCGLCLQRAPASKTLTLHTSAKVLILVLKRFSDVTGNKLAKNVQYPECLDMQPYMSQQNTGPLVYVLYAVLVHAGWSCHDGHYFSYVKAQEGQWYKMDDAKVTACSITSVLSQQAYVLFYIQKSEWERHSESVSRGREPRALGAEDTDRRATQGELKRDHPCLQAPELDERLVERATQESTLDHWKFPQEQNKTKPEFNVRKVEGTLPPNVLVIHQSKYKCGMKNHHPEQQSSLLNLSSTTRTDQESVNTGTLASLQGRTRRSKGKNKHSKRALLVCQ
In the case of B1, the binding [2] is reported as “binds”.
